# Measured values from PubChem BioAssay AID1259415 (National Center for Advancing Translational Sciences (NCATS), 2018).
# Out of some 410,000 compounds screened, about 18,000 (4.4%) were called active. Inconclusive means that the source gave no clear call. Such entries were picked first, then a sample of the others. Cut-off read from the data, not from the text of the source: active = activity change below about -60%; inconclusive = no clear call, values can overlap the other calls; inactive = above about -39%.
# Test: qHTS Assay for inhibitors of the human cytomegalovirus (HCMV)
# Conditions: HFF cells, HCMV-luciferase reporter, 72 h; at 57.5 µM; hits give low values
# Method in brief: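 Cell-based, HFFs, 1000 cells/well, 16 h 37C; cpds in DMSO + HCMV-luc, MOI 1 PFU/cell; 72 h 37C; OneGlo luminescence after 5 min RT; norm. to buffer vs Salinomycin 10uM.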
# % is set by controls: 0 for no effect and ±100 for the full control effect.
row,Structure (SMILES),"activity change, negative = inhibition"
1,CCCCCCCCCCCCCCCC(O)C[N+](C)(C)CCO (centres undefined),inconclusive: -51.4%
2,CCN(CCCn1c(=S)[nH]c2ccc(N3CCOCC3)cc2c1=O)c1ccccc1,inconclusive: -48.6%
3,Cc1ccc(CNC(=O)CN2C(=O)C3(SCC(=O)N3c3cc(C)cc(C)c3)c3ccccc32)cc1 (centres undefined),inconclusive: -45.4%
4,COc1ccc(CNCCSc2nnnn2-c2ccccc2)c(OC)c1,inactive: -5.43%
5,Cc1cccc(CC2S/C(=N/c3ccccn3)NC2=O)c1 (centres undefined),active: -64.6%
6,CCC(/C=C1\Sc2ccc(OC)cc2N1CCO)=C\c1sc2ccc(OC)cc2[n+]1CCO,active: -97.7%
7,CC[C@@]12C(=O)N(c3ccccc3)C(=O)N1[C@H](c1cccc(C)c1)[C@@H]1C(=O)N(Cc3ccccc3)C(=O)[C@@H]12,inactive: 29.8%
8,COC(=O)[C@@]12C[C@@H](CC(=O)NCc3cccc(C(F)(F)F)c3)C(=O)N(Cc3cccc4ccccc34)C1=CCC(C)(C)C2,inactive: 5.63%
9,CCCC(C)C(=O)Nc1nc(C)c(-c2csc(Nc3ccc(Cl)cc3)n2)s1 (centres undefined),active: -80.1%
10,O=[N+]([O-])c1cc(Cl)cc(/C=N\Nc2ccccn2)c1O,active: -103%
11,COc1ccc(-c2cc(=O)oc3cc(OCC(=O)Nc4ccccn4)ccc23)cc1,inactive: -20.6%
12,Cn1nc(C(C)(C)C)cc1C(=O)N1CCCCC1c1cc(C(=O)Nc2ccc(F)c(Cl)c2)no1 (centres undefined),inconclusive: -51.7%
13,Cc1ccccc1-n1ncc2c(SCC(=O)N3c4ccccc4CC3C)ncnc21 (centres undefined),active: -67.4%
14,CN(C(=O)CSc1ncn[nH]1)C1(C#N)CCCCC1,inconclusive: -51.1%
15,NC(=O)CC(NC(=O)c1ccccc1)c1ccc(NCc2ccccc2)c([N+](=O)[O-])c1 (centres undefined),inactive: 4.62%
16,N/C(=N\OC(=O)c1ccco1)c1cccc([N+](=O)[O-])c1,inactive: -9.2%
17,COc1ccc(OCC(=O)Nc2ccc(Cl)cc2C(=O)c2ccccc2)cc1,inconclusive: -43%
18,COCCN(C(=O)COC(=O)C1CCC(C(C)(C)C)CC1)c1c(N)n(Cc2ccccc2)c(=O)[nH]c1=O (centres undefined),inconclusive: -43.8%
19,Cc1c(CNCCc2ccc(S(N)(=O)=O)cc2)c(C(=O)O)c(C)n1Cc1ccc(Cl)cc1,inactive: 19.4%
20,COc1ccc(/C=N\NC(=O)CNC(=O)C(c2ccccc2)c2ccccc2)cc1[N+](=O)[O-],inconclusive: -40.4%
21,CC1=C(C(=O)OCC(C)C)C(c2ccsc2)C2=C(CCCC2=O)N1 (centres undefined),active: -78.2%

row,Structure (SMILES),"activity change, negative = inhibition"
1,COc1cc(/C=C2\SC(=S)N(CC(=O)O)C2=O)ccc1OS(=O)(=O)c1ccc(C)cc1,inconclusive: -43.9%
2,CC1=C(C(=O)OCC2CCCCC2)C(c2ccc(F)cc2)NC(=O)N1 (centres undefined),inconclusive: -52.9%
3,Cc1ccc2[nH]c(O)c(N=NC(=O)C3CC3c3ccccc3)c2c1Br (centres undefined),inconclusive: -51.2%
4,O=C(COc1ccccc1[N+](=O)[O-])N/N=C/c1ccncc1,inconclusive: -48.8%
5,O=C1C2C3C=CC(CNS(=O)(=O)c4ccccc4)(O3)C2C(=O)N1c1ccc(Cl)cc1 (centres undefined),inconclusive: -44.8%
6,O=S(=O)(c1ccccc1)N1CCN=C1SCc1c(F)cccc1Cl,active: -80%
7,O=C(N/N=C/c1cccnc1)c1ccc(NC(=O)c2ccccc2Cl)cc1,inconclusive: -44.1%
8,COc1ccc2cc(CNCCOCCOCCNCc3ccc4cc(OC)ccc4c3)ccc2c1,active: -97.6%
9,CC1CCN(CCCNC(=O)c2ccc3c(Cl)c4c(nc3c2)CCCC4)CC1,inconclusive: 0%
10,CC(=O)Nc1ccc(NC(C)=O)c(NC2OCC(O)C(O)C2O)c1 (centres undefined),inconclusive: -42.6%
11,CC(C)CC(=O)NC(NC(=S)Nc1cccc2cccnc12)C(Cl)(Cl)Cl (centres undefined),inconclusive: -53.5%
12,COc1ccc(NC(=O)CN2CCCC2c2cccs2)cc1S(=O)(=O)N1CCCCC1 (centres undefined),inconclusive: -48.4%
13,O=C(c1ccccc1)C1N=NCC1c1ccc(Cl)cc1 (centres undefined),inconclusive: -52%
14,CC1(c2ccccc2)CC(C)(C)N(C(=O)c2cc([N+](=O)[O-])cc([N+](=O)[O-])c2)c2ccccc21 (centres undefined),inconclusive: -50.4%
15,O=C(CCn1cccn1)Nc1ccc2c(c1)OCCO2,inconclusive: -40.6%
16,CCc1cc(C(=O)N2CCCC(C(=O)c3ccc(Oc4ccccc4)cc3)C2)n(C)n1 (centres undefined),inconclusive: -57.4%
17,Cn1nccc1C(=O)N1CCN(c2cccc(Cl)c2)CC1,inconclusive: -40.6%
18,Cc1ccc(S(=O)(=O)/N=C(/Nc2ccc(F)cc2F)c2ccc(F)cc2)cc1,inconclusive: -44.8%
19,CN1c2ccccc2N(C)C1(C)c1ccccc1,active: -92.8%
20,COc1ccc(S(=O)(=O)N2c3ccccc3OCC2C)cc1 (centres undefined),active: -66.2%
21,CC(CCc1ccccc1)NC(=O)Cn1cccc1C(=O)c1ccccc1 (centres undefined),inconclusive: -45.1%

row,Structure (SMILES),"activity change, negative = inhibition"
1,COc1ccc(OC)c(C2C3=C(N=c4s/c(=C\c5cccc(O)c5)c(=O)n42)c2ccccc2CC3)c1 (centres undefined),active: -92.5%
2,Cc1cccc(CNC(=O)CN2C(=O)CCCc3ccccc32)c1,inconclusive: 0%
3,O=C(NNC(=O)c1cc(-c2cccnc2)nc2ccccc12)Nc1ccc(Cl)cc1,inconclusive: -49.2%
4,CC(Sc1nnc(C2CC2)n1C)C(=O)Nc1ccc2c(c1)CCC2 (centres undefined),inactive: 32.3%
5,CCc1ccc(C2CC(c3cccc(Cl)c3)n3nc(N)nc3N2)cc1 (centres undefined),inconclusive: -40.2%
6,CCCOc1ccccc1C1NC(=O)NC(C)=C1C(=O)OCCOC(C)C (centres undefined),inactive: -12.4%
7,Cc1ccc(NC(=S)N/N=C/c2ccc([N+](=O)[O-])s2)cc1,active: -74.3%
8,CCOC(=O)c1c(C)[nH]c(C(=O)OC(C)C(=O)NC2(C#N)CCCCC2)c1C (centres undefined),inconclusive: -40%
9,O=C(CN1C(=O)c2ccccc2S1(=O)=O)c1ccccc1F,inconclusive: -46.8%
10,CC(=O)OCn1ncc(N2CCOCC2)c(Br)c1=O,inconclusive: -45.4%
11,COc1ccc(N2CCN(CCCNC(=O)c3cc(Nc4ccccc4OC)nc4ccccc34)CC2)cc1,inconclusive: -42%
12,CN(CC(=O)Nc1ccc(Cl)c(C(F)(F)F)c1)C(=O)c1ccc(OCC2CCCO2)cc1 (centres undefined),active: -72.6%
13,O=C(NC1CCCC1)c1ccc2c(=O)n(Cc3ccccc3)c(SCc3ccccc3)nc2c1,inactive: -12.9%
14,COc1ccc(Cc2nc3ccc(S(=O)(=O)N4CCOCC4)cc3[nH]2)cc1OC,inconclusive: -44.4%
15,COc1ccc(-c2nc3ccc(C)cn3c2Nc2ccc3c(c2)OCO3)cc1,active: -106%
16,O=C(Nc1ccc(OC(F)(F)F)cc1)c1ccc2nccnc2c1,inconclusive: -40.7%
17,O=C(Nc1cccc(-c2cn3cccnc3n2)c1)Nc1ccccc1F,inconclusive: -57.1%
18,CC(C)(C)C1CCC(OC(=O)CCC(=O)Nc2ccccc2)CC1 (centres undefined),inconclusive: -58%
19,CC1(C2CC2)NC(=O)N(CC(=O)NCC(=O)Nc2ccc(F)c(F)c2F)C1=O (centres undefined),inactive: -16.7%
20,COc1cc(C(=O)OCc2cc3ccccc3[nH]c2=O)cc(OC)c1OC,active: -86.1%
21,O=C(N/N=C\c1cc(Cl)ccc1O)c1ccc(S(=O)(=O)N2CCCCC2)cc1,active: -103%

row,Structure (SMILES),"activity change, negative = inhibition"
1,COC(=O)[C@@H]1C[C@@]2(O)[C@@H](O)[C@@H](O)[C@@H](O)C[C@H]2N1Cc1cc(OC)cc(OC)c1,active: -99.6%
2,CSc1ccc(CC2C(=O)Nc3ccccc32)cc1 (centres undefined),inconclusive: -40.5%
3,CCC(=O)N1CCN(c2ccc(Cl)cc2NC(=O)Cc2ccc(Cl)cc2)CC1,inconclusive: -40.6%
4,COc1cc(NC(=O)Nc2cccc(C(C)=O)c2)cc(OC)c1OC,inactive: 35.6%
5,Cc1nc2cc(S(=O)(=O)N3CCC(C(=O)O)CC3)ccc2n1C1CCCC1,inconclusive: -46.7%
6,CCn1c(CN2CCOCC2)nc2cc(NC(=O)c3ccc([N+](=O)[O-])cc3)ccc21,inconclusive: -40.9%
7,COc1ccc(S(=O)(=O)N2CCCC(C(=O)Nc3cccnc3)C2)cc1Cl (centres undefined),inconclusive: -52.7%
8,O=C(NCCCn1ccnc1)C1CCN(S(=O)(=O)c2cc([N+](=O)[O-])ccc2Cl)CC1,inconclusive: -41.8%
9,CC(C(=O)NCCc1nc2ccccc2[nH]1)n1cc([N+](=O)[O-])cn1 (centres undefined),inconclusive: -43.5%
10,CC1CCC2(CC1)N=C(c1ccccc1)C(=O)N2CC(=O)Nc1ccc(F)c(Cl)c1 (centres undefined),active: -96%
11,CC(=O)CC1OC(=O)C(Br)=C1NCc1ccccc1 (centres undefined),inconclusive: -50.4%
12,COc1cccc(CNC(=O)c2ccc3c(c2)nc2n3CCCCC2)c1OC,inactive: 14.6%
13,COc1ccc(/C=N/NC(=O)C(C)n2cnc3ccccc3c2=O)cc1 (centres undefined),inconclusive: -45.1%
14,CC1CC(C)CN(c2ncnc3c2cnn3-c2ccc(Cl)cc2)C1 (centres undefined),inconclusive: -44.1%
15,COc1cc(C(=O)OCc2cc(=O)n3nc(C(C)C)sc3n2)cc(OC)c1OC,inactive: 8.29%
16,COc1ccc(Cl)cc1NC(=O)CSc1nnc(COc2ccccc2)n1C,inconclusive: -43.8%
17,CCOC(=O)C(O)(c1ccc(NC(=O)c2ccco2)c(OC)c1)C(F)(F)F (centres undefined),inactive: 8.29%
18,CCOc1ccccc1NC(=O)CN1CCCN(Cc2cccc(Cl)c2)S1(=O)=O,inconclusive: 0%
19,COc1ccc2c(c1OC)C(=O)N1C2SC[C@H]1C(=O)NC1CCCC1 (some centres undefined),inactive: -25%
20,Cc1c(NC(=O)/C(C#N)=C/c2ccccc2)c(=O)n(-c2ccccc2)n1C,inactive: -20.9%
21,COc1cc(NC(=O)c2cccc(F)c2)ccc1NC(=O)c1cc2ccccc2o1,inconclusive: -59.7%

# Molecules above containing a tert-butyl group:
row,Structure (SMILES),"activity change, negative = inhibition"
12,Cn1nc(C(C)(C)C)cc1C(=O)N1CCCCC1c1cc(C(=O)Nc2ccc(F)c(Cl)c2)no1 (centres undefined),inconclusive: -51.7%
18,COCCN(C(=O)COC(=O)C1CCC(C(C)(C)C)CC1)c1c(N)n(Cc2ccccc2)c(=O)[nH]c1=O (centres undefined),inconclusive: -43.8%
18,CC(C)(C)C1CCC(OC(=O)CCC(=O)Nc2ccccc2)CC1 (centres undefined),inconclusive: -58%
